Measurements from patent publication US10414732B2, “Polymorphic compounds and uses thereof” (priority 2017, dated 2019).
Some results were stated once for a whole list of compounds, not compound by compound.

Assay: Aqueous solubility determination via HPLC calibration curve
Format: physicochemical
Conditions: water; comparison in words
Method: The solubility determination was made as follows. Each salt suspension was made by adding 50-100 mg of material into a minimum amount of water (0.1-0.2 mL to start). Based on solubility, additional material was added to obtain a salt suspension. The suspension was then filtered through a 0.25 μm filter and the filtrate was further diluted with water and the salt solution was analysed by HPLC. The concentration of the salt solution injected was calculated with the linear equation y=mx+c derived from the calibration curves, with Y referring to the HPLC response obtained for the salt solution injected.

| SMILES | Aqueous solubility compared with the other compounds |
| --- | --- |
| CC(C)(O)c1nc2ccc(Cl)cc2cc1N.CS(=O)(=O)O [Compound 1] | far more soluble than the freebase compound A |
| CC(C)(O)c1nc2ccc(Cl)cc2cc1N.O=S(=O)(O)O [Compound 3] | far more soluble than the freebase compound A |
| CC(C)(O)c1nc2ccc(Cl)cc2cc1N.Cc1ccc(S(=O)(=O)O)cc1 [Compound 4] | far more soluble than the freebase compound A |
| CC(C)(O)c1nc2ccc(Cl)cc2cc1N [Compound 5] | far more soluble than the freebase compound A |
| CC(C)(O)c1nc2ccc(Cl)cc2cc1N.O=C(O)C(=O)O [Compound 6] | far more soluble than the freebase compound A |
| CC(C)(O)c1nc2ccc(Cl)cc2cc1N.O=P(O)(O)O [Compound 7] | far more soluble than the freebase compound A |
| CC(C)(O)c1nc2ccc(Cl)cc2cc1N [Compound 8] | far more soluble than the freebase compound A |
